Measurements reported in PubChem BioAssay AID602196 (INSERM, 2012)
This is an unselected part of about 23,000 deposited reagents. 455 of them (2%) were called active. 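Active includes both protection and sensitisation; some change values fall well beyond the stated -50 to +50 range.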 Further read-outs or replicates are left out here. Reagent sequences are not shown. Not stated in the record: the amount of reagent.

Screen: 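Genes whose knock-down alters cisplatin killing of lung cancer cells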
Cell system: human A549 lung cancer cells
Reagent: siRNA pair against human genes
Timing: 48 h transfection before cisplatin; time from cisplatin to read-out not stated
Conditions: cisplatin at a dose killing half of control-siRNA cells; exact dose and duration not given
Measured: 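Shift in cisplatin death relative to control siRNA, from -50 (all cells die) to +50 (no cells die); siRNAs harmful on their own scored 0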
Reading the numbers: two-siRNA summed score (-2 to +2): higher = both siRNAs protect from cisplatin killing; -2 means both sensitise; mean protection from cisplatin (shift in death): higher = protection from cisplatin killing
Active means: 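siRNAs harmful alone (LDH or WST-1) get 0; others get +1 for less and -1 for more cisplatin killing; genes are active when the two siRNAs give the same sign, summing to ±2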
Meaning of the calls: active = both siRNAs shift cisplatin killing the same way; inactive = no consistent shift, or siRNA harmful alone

For FMO9P, how do the results read?
two-siRNA summed score (-2 to +2): -1; mean protection from cisplatin (shift in death) (%): -3.7; activity call: inactive

With CENPH, what does the deposit list?
two-siRNA summed score (-2 to +2): 0; mean protection from cisplatin (shift in death) (%): -6.8; activity call: inactive

For RAB5B, how do the results read?
two-siRNA summed score (-2 to +2): 0; mean protection from cisplatin (shift in death) (%): -5.8; activity call: inactive

With LGI3, what was measured?
two-siRNA summed score (-2 to +2): 2; mean protection from cisplatin (shift in death) (%): 16.3; activity call: active

What is on record for LOC112268070?
two-siRNA summed score (-2 to +2): 0; mean protection from cisplatin (shift in death) (%): 2.6; activity call: inactive

With LOC391817, how do the results read?
two-siRNA summed score (-2 to +2): 2; mean protection from cisplatin (shift in death) (%): 13.4; activity call: active

How did the screen score LOC390183?
two-siRNA summed score (-2 to +2): 1; mean protection from cisplatin (shift in death) (%): 17.7; activity call: inactive

For VPS25P1, what was measured?
two-siRNA summed score (-2 to +2): 0; mean protection from cisplatin (shift in death) (%): 7.5; activity call: inactive

With LOC441002, how do the results read?
two-siRNA summed score (-2 to +2): 0; mean protection from cisplatin (shift in death) (%): 11.3; activity call: inactive

Which result is listed for KLK14?
two-siRNA summed score (-2 to +2): -1; mean protection from cisplatin (shift in death) (%): -3.9; activity call: inactive

Active calls (from the list above):
LGI3: two-siRNA summed score (-2 to +2) = 2; mean protection from cisplatin (shift in death) (%) = 16.3; activity call = active
LOC391817: two-siRNA summed score (-2 to +2) = 2; mean protection from cisplatin (shift in death) (%) = 13.4; activity call = active

More results follow.
For PLAU, how do the results read?
two-siRNA summed score (-2 to +2): 1; mean protection from cisplatin (shift in death) (%): 10.8; activity call: inactive

What did the screen give for LOC390387?
two-siRNA summed score (-2 to +2): 0; mean protection from cisplatin (shift in death) (%): -0.5; activity call: inactive

How did the screen score LOC401470?
two-siRNA summed score (-2 to +2): 0; mean protection from cisplatin (shift in death) (%): 27; activity call: inactive

How did the screen score PLP2?
two-siRNA summed score (-2 to +2): 0; mean protection from cisplatin (shift in death) (%): -1.9; activity call: inactive

With TMEM92, what does the deposit list?
two-siRNA summed score (-2 to +2): 0; mean protection from cisplatin (shift in death) (%): -3.6; activity call: inactive

With LYZL2, what was measured?
two-siRNA summed score (-2 to +2): 0; mean protection from cisplatin (shift in death) (%): -1.6; activity call: inactive

Which result is listed for AGPAT5?
two-siRNA summed score (-2 to +2): -1; mean protection from cisplatin (shift in death) (%): -10.4; activity call: inactive

For LOC442039, what does the deposit list?
two-siRNA summed score (-2 to +2): 1; mean protection from cisplatin (shift in death) (%): 11.8; activity call: inactive

For FGG, how do the results read?
two-siRNA summed score (-2 to +2): 0; mean protection from cisplatin (shift in death) (%): 19.5; activity call: inactive

With MTMR11, how do the results read?
two-siRNA summed score (-2 to +2): 0; mean protection from cisplatin (shift in death) (%): -2; activity call: inactive

What is on record for C11orf24?
two-siRNA summed score (-2 to +2): -1; mean protection from cisplatin (shift in death) (%): -15.2; activity call: inactive

For PLCE1, what was measured?
two-siRNA summed score (-2 to +2): 0; mean protection from cisplatin (shift in death) (%): -4; activity call: inactive

Which result is listed for LOC440201?
two-siRNA summed score (-2 to +2): 1; mean protection from cisplatin (shift in death) (%): 12.4; activity call: inactive

For MTFMT, what was measured?
two-siRNA summed score (-2 to +2): 0; mean protection from cisplatin (shift in death) (%): 1.3; activity call: inactive

For ISCA2, what was measured?
two-siRNA summed score (-2 to +2): 0; mean protection from cisplatin (shift in death) (%): 2.7; activity call: inactive

With MSH4, how do the results read?
two-siRNA summed score (-2 to +2): 0; mean protection from cisplatin (shift in death) (%): -11.4; activity call: inactive

Which result is listed for FLJ40244?
two-siRNA summed score (-2 to +2): 0; mean protection from cisplatin (shift in death) (%): 25.8; activity call: inactive

For THOC6, what does the deposit list?
two-siRNA summed score (-2 to +2): 0; mean protection from cisplatin (shift in death) (%): -0.2; activity call: inactive

For MAP4K3, how do the results read?
two-siRNA summed score (-2 to +2): 0; mean protection from cisplatin (shift in death) (%): -0.8; activity call: inactive

What did the screen give for LOC400939?
two-siRNA summed score (-2 to +2): 1; mean protection from cisplatin (shift in death) (%): 23.8; activity call: inactive

Which result is listed for C4orf36?
two-siRNA summed score (-2 to +2): 1; mean protection from cisplatin (shift in death) (%): 10.3; activity call: inactive
